The values below come from publication PMC12854861.

The chains behind the UniProt entries cited, without tags or fusion partners. Residues count along the entry.
UniProt P37173, residues 23-567: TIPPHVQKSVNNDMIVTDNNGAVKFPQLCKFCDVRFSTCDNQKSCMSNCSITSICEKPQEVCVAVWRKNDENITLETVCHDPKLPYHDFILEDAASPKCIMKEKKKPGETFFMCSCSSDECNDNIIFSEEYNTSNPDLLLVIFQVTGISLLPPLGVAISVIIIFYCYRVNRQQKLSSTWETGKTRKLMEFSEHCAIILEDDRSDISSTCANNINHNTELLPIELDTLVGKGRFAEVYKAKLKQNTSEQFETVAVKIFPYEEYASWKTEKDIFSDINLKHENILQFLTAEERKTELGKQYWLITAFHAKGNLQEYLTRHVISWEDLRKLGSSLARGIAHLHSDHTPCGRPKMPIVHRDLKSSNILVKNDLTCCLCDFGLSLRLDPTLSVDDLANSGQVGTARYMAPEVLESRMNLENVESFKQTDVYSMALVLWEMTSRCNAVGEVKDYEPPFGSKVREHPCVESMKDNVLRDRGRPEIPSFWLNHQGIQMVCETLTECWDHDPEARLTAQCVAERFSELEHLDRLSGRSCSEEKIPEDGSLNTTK

T1: type 1 TGF-β receptor (TβRI) (UniProt P36897)
T1 sequence: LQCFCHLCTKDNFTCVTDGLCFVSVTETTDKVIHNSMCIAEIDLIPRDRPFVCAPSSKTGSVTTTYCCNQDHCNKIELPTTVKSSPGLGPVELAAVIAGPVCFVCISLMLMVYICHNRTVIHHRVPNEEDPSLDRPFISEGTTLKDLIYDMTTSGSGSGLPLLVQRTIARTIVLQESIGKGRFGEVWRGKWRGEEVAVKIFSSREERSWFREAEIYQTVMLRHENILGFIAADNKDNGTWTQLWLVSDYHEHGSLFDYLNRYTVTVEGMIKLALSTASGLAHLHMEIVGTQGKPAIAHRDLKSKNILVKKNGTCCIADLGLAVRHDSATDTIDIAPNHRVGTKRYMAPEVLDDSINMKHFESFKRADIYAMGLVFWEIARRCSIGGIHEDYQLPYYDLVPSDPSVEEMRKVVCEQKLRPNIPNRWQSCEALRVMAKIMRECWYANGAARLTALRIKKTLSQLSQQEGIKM

B1: Neurensin 2 (NRSN2), wild type (protein, UniProt Q9GZP1 1-204)
chain: MMPSCNRSCSCSRGPSVEDGKWYGVRSYLHLFYEDCAGTALSDDPEGPPVLCPRRPWPSLCWKISLSSGTLLLLLGVAALTTGYAVPPKLEGIGEGEFLVLDQRAADYNQALGTCRLAGTALCVAAGVLLAICLFWAMIGWLSQDTKAEPLDPEADSHVEVFGDEPEQQLSPIFRNASGQSWFSPPASPFGQSSVQTIQPKRDS
B2: NRSN2 p.R104Q variant (c.311G > A) (protein, UniProt Q9GZP1 1-204)
chain: B1 chain with R104Q
B3: NRSN2 p.F183L variant (c.549C > G) (protein, UniProt Q9GZP1 1-204)
chain: B1 chain with F183L

Changes are numbered by the printed parent chain. Names and notes keep the numbering of the source. Results are given in words; binding and its absence hold for the method and conditions named. In cells and extracts the contact can be indirect. Some entries that bind do so weakly or less than the wild type.

In one test the target is type 2 TGF-β receptor (TβRII) (UniProt P37173). The experiment in a line: co-IP; HEK-293T cells transfected with the indicated constructs; immunoprecipitation with anti-FLAG and anti-MYC antibodies, followed by immunoblotting.
Take B1: the binding result is on record as “binds”.
Still for that read-out and setting: the value for B2 was “binds”.
On the same count and under the same terms, the value for B3 was “binds”.

In the next test the target is T1, type 1 TGF-β receptor (TβRI). The description is as above.
Consider B1, for which the binding entry was “binds”.
Consider B2, for which the binding result is listed as “binds”.
As for B3, the binding result is reported as “binds”.
